Experimental data: paper PMC3570524
These are yes or no findings as the source states them, for the method shown. For part of these data: Binding seen in cells or lysates may run through a third protein. For part of these data: A result given as binding can be weak or reduced; the word gives no strength. For part of these data: Tags and fused reporters may be left off the sequences shown.

By UniProt entry, the sequences of proteins in these tests, tags left out. Where a name states a change or a piece, a line headed by the entry shows the natural chain unless it says otherwise.
UniProt G8JYD8: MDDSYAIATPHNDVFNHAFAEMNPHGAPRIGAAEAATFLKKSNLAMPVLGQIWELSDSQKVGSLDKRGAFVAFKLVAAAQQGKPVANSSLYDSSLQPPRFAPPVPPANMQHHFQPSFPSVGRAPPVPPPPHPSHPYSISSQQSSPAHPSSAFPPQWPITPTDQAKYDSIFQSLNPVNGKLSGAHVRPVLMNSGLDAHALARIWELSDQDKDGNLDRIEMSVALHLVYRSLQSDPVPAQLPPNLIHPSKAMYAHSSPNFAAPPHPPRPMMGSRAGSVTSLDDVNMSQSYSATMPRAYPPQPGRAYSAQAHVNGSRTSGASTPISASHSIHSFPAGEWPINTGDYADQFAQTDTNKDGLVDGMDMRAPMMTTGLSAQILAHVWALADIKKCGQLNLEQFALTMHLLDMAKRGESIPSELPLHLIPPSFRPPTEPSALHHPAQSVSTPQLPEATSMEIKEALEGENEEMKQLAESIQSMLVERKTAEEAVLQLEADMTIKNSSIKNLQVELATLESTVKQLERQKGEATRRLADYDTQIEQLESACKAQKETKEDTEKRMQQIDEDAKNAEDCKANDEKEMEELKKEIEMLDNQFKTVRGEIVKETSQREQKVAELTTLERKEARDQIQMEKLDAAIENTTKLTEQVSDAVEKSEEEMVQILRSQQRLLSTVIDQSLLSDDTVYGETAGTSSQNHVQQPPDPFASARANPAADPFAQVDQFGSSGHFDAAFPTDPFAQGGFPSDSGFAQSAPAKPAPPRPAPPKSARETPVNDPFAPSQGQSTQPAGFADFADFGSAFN
UniProt Q8MYM6: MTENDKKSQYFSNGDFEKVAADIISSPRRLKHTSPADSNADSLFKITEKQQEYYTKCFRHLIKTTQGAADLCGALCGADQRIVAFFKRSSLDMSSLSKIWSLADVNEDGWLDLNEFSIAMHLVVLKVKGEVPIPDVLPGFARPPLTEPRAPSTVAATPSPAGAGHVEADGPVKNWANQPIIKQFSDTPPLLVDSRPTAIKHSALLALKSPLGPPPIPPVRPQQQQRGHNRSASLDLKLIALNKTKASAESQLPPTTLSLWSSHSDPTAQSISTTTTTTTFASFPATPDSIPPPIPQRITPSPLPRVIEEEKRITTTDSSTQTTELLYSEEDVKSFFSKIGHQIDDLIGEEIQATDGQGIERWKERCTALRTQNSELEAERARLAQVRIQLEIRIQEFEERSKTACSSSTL

What follows are substances tested against T1, GST-BATH-42 (C. elegans) (UniProt P34371) (assay: pull-down; 10 µg of GST protein on Glutathione Sepharose beads incubated 2 hours with Phoenix cell lysate holding the FLAG-tagged EH protein; JS buffer (Hepes 50 mM pH 7.4, NaCl 150 mM, Triton X100 1%); anti-FLAG immunoblot; only the target purified).
T1 sequence: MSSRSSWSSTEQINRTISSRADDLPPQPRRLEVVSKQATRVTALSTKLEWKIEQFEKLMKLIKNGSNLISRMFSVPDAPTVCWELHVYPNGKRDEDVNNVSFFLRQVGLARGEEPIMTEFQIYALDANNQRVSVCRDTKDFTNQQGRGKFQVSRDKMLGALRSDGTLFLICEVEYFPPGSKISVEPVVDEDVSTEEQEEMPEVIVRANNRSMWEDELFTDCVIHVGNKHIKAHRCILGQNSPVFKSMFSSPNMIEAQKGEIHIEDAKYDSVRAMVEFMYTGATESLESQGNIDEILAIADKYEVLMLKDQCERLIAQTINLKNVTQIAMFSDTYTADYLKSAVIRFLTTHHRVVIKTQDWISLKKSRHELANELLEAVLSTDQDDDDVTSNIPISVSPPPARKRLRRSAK

Question: “FLAG-tagged full-length EHS-1 (aa 1-796) (from UniProt G8JYD8)” was tested. Which binding did it give?
Answer: The binding was “no binding (tested: 10 µg of GST protein)”.

Each substance was assayed against T2, GST-FLH-1 (C. elegans) (UniProt Q9XWR1) in the same assay as above.
T2 sequence: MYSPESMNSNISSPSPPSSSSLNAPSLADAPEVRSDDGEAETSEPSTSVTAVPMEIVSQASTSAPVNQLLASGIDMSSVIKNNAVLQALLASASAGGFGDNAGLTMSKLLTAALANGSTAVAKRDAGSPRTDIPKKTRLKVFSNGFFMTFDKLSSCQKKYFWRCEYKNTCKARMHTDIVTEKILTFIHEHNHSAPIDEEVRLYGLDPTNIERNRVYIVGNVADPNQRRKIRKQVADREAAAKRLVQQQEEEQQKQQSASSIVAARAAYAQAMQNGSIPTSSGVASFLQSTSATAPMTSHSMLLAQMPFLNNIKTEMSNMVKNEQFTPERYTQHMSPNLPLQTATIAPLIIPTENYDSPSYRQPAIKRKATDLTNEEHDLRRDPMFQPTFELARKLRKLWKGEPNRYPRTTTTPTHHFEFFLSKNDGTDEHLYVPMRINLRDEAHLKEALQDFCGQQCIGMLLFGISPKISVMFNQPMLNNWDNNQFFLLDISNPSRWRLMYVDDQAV

Question: With “FLAG-tagged full-length EHS-1 (aa 1-796) (from UniProt G8JYD8)” as the substance, how does the binding read?
Answer: The binding was “binds”.

Question: How did the binding turn out when “FLAG-tagged full-length ITSN-1 (aa 1-1085) (C. elegans)” was run?
Answer: The binding was “no binding (tested: 10 µg of GST protein)”.

Question: How did the binding turn out when “FLAG-tagged full-length REPS-1 (aa 1-410) (from UniProt Q8MYM6)” was run?
Answer: The binding was “binds”.

Each substance was assayed against T3, GST-SEL-5 (C. elegans) (UniProt G5ECQ3) in the same assay as above.
T3 sequence: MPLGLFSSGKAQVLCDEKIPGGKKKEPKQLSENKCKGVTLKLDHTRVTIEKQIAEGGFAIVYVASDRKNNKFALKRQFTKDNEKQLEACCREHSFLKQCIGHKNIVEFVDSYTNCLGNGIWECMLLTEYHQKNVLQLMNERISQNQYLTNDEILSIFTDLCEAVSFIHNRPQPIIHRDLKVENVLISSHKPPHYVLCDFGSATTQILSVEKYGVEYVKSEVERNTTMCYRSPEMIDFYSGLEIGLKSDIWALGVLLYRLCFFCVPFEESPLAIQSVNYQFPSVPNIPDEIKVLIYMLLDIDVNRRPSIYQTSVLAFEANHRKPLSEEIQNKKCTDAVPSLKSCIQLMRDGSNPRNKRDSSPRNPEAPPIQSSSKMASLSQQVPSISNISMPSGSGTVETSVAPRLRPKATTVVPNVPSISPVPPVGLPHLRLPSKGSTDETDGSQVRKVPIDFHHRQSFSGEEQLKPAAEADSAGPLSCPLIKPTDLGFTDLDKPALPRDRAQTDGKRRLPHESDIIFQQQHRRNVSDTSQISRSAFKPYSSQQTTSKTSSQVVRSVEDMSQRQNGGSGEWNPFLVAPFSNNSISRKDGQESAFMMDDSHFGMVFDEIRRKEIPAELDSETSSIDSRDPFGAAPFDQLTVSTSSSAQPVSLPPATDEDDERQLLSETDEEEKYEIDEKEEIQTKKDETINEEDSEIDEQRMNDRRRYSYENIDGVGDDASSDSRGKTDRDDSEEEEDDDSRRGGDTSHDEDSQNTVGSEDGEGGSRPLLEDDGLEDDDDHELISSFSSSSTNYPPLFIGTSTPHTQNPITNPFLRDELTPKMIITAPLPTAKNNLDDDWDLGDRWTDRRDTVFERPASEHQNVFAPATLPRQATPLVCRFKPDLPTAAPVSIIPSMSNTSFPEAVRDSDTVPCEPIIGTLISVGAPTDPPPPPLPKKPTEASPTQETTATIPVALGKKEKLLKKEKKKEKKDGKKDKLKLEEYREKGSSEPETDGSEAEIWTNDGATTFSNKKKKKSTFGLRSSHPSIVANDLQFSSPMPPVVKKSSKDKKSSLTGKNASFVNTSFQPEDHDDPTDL

Question: With “FLAG-tagged full-length REPS-1 (aa 1-410) (from UniProt Q8MYM6)” as the substance, how does the binding read?
Answer: Its binding is “binds”.

What follows are substances tested against T4, EH-domain bait of R10E11.6 (aa 55-360) (C. elegans) (UniProt P34550) (assay: two-hybrid; ProQuest system, yeast MaV203; EH-domain baits in pDBLeu, C. elegans cDNA library or re-transformed inserts in pPC86; growth in selective media (3-AT) and LacZ expression).
T4 sequence: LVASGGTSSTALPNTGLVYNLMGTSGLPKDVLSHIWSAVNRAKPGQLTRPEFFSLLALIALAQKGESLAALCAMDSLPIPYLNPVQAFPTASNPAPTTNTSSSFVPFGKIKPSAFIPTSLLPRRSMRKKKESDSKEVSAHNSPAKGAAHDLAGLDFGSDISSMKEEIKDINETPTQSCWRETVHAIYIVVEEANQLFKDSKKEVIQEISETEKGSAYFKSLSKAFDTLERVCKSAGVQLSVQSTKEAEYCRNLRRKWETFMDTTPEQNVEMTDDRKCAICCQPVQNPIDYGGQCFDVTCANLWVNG

Question: With AIN-2 (two-hybrid prey) (C. elegans) as the substance, how does the binding read?
Answer: Its binding is “no binding”.

Question: Which binding does the source give for “BE0003N10.3 (two-hybrid prey) (C. elegans)” here?
Answer: Its binding is “no binding”.

Question: For CAS-1 (two-hybrid prey) (C. elegans), which binding is on record?
Answer: Its binding is “no binding”.

Question: D1081.7 (two-hybrid prey) (C. elegans) was tested. Which binding did it give?
Answer: The binding was “no binding”.

Question: Which binding does the source give for DAB-1 (two-hybrid prey) (C. elegans) here?
Answer: Its binding is “no binding”.

Question: Which binding does the source give for EPN-1 (two-hybrid prey) (C. elegans) here?
Answer: The binding was “no binding”.

Question: How did the binding turn out when F46H5.7 (two-hybrid prey) (C. elegans) was run?
Answer: The binding was “no binding”.

Question: For K04H4.2 (two-hybrid prey) (C. elegans), which binding is on record?
Answer: The binding was “no binding”.

Question: Which binding does the source give for M03A8.3 (two-hybrid prey) (C. elegans) here?
Answer: Its binding is “no binding”.

Question: Which binding does the source give for PQN-32 (two-hybrid prey) (C. elegans) here?
Answer: The binding was “no binding”.

Question: For T05E7.5 (two-hybrid prey) (C. elegans), which binding is on record?
Answer: Its binding is “no binding”.

Question: Which binding does the source give for T05F1.4 (two-hybrid prey) (C. elegans) here?
Answer: Its binding is “no binding”.

Question: With T23G11.7 (two-hybrid prey) (C. elegans) as the substance, how does the binding read?
Answer: The binding was “no binding”.

Question: How did the binding turn out when TAG-208 (two-hybrid prey) (C. elegans) was run?
Answer: Its binding is “no binding”.

Question: VAB-19 (two-hybrid prey) (C. elegans) was tested. Which binding did it give?
Answer: The binding was “no binding”.

Question: Y37E3.11 (two-hybrid prey) (C. elegans) was tested. Which binding did it give?
Answer: The binding was “no binding”.
